From PubChem BioAssay AID624297 (National Center for Advancing Translational Sciences (NCATS), 2012)
Several values for one entry are separate records, joined by “and”; a condition that tells them apart may be missing. Identical values can stand only once. The whole screen tested about 340,000 compounds, of which about 6,200 (1.8%) were called active. Inconclusive means that the source gave no clear call. Such entries were picked first, then a sample of the others. Calls follow the shape of the dose curve; as a rule, active = well fitted activation curve with a large enough effect; inconclusive = small, poorly fitted or top-dose-only effect; inactive = no such curve, though single readings can be large or run the other way. Where the call is inconclusive, the potency comes from a doubtful curve fit.

test: A quantitative high throughput screen for small molecules that induce DNA re-replication in SW480 colon adenocarcinoma cells.; also: nearly all actives have a fitted effect of over 55% in size; details: Hoechst DNA content imaging, 48 h; series mostly up to 46.1 µM
Procedure, shortened: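 Quantitative HTS format with DMSO vehicle controls; 48 hr drug incubation at 37 C, then 40 min Hoechst staining and scanning imager measurement at 405 nm excitation.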
Potency is read from the fitted curve at half-maximal effect.

Row | SMILES | Potency
1 | CCCCCCCCc1nnc(N)s1 | inactive
2 | CCOCCCNC(=O)c1cc2c(=O)n3ccccc3nc2s1 | inconclusive: 4.61 µM [activator, full curve, poor fit]
3 | COc1ccc(-c2csc(NC(=O)c3ccccc3Br)c2C(=O)O)cc1 | inactive
4 | Cc1ccc(NC(=O)COc2ccc(/C=C3/SC(=Nc4ccccc4)N(Cc4cccnc4)C3=O)cc2)cc1 | inconclusive: 2.91 µM [activator, full curve]
5 | O=C(NNCC(O)COc1ccccc1)c1ccccc1 (configuration not stated) | inactive
6 | Cc1nnc2ccc(-c3ccc(NS(=O)(=O)c4ccccc4F)cc3)nn12 | inconclusive: 18.4 µM [activator, single point]
7 | C/C(N)=C(/C#N)C(=O)CSc1nnc(-c2ccc3c(c2)OCO3)o1 | active: 11.6 µM
8 | CCOC(=O)N1CCN(C(=O)C(=O)NN)CC1 | inactive
9 | O=C(CSCC(=O)Nc1nc(-c2ccc3c(c2)OCO3)cs1)Nc1nccs1 | inactive
10 | CCC(C(=O)N1CCc2cc(OC)c(OC)cc2C1)c1ccccc1 (configuration not stated) | inconclusive: 1.46 µM [activator, full curve, poor fit]
11 | CCC(C)[C@H](NC(=O)N1CCn2c1nc1ccccc12)C(=O)NCc1ccccc1 (some centres not stated) | inconclusive: 3.66 µM [activator, single point]
12 | Cc1ccsc1C(=O)N1CCCC(N2CCN(c3cccc(Cl)c3)CC2)C1 (configuration not stated) | inconclusive: 14.6 µM [activator, partial curve, poor fit]
13 | CCCc1cc(-c2nc(-c3ccc(C)cc3)cs2)ccn1 | inconclusive: 29.1 µM [activator, single point]
14 | COc1ccc2[nH]c3c(c2c1)CCN1C(=O)N([C@@H](C)C(=O)NCCc2ccc(OC)c(OC)c2)C(=O)[C@]31C | inactive
15 | COc1cc(C(c2sc3nc(C)nn3c2O)N2CCc3ccccc3C2)cc(OC)c1OC (configuration not stated) | inactive
16 | COc1ccc(-n2c(Cc3cccn3C)nnc2SCC(=O)NCCc2ccccc2)cc1 | inactive
17 | NC(=O)c1cc(S(=O)(=O)NCc2ccc(Br)cc2)cs1 | inconclusive: 31.6 µM [activator, single point]
18 | N#CCC(=O)NNc1c([N+](=O)[O-])cc(C(F)(F)F)cc1[N+](=O)[O-] | inconclusive: 16.4 µM [activator, single point]
19 | CCn1c2ccccc2c2nnc(NN)nc21 | inconclusive: 29.1 µM [activator, single point]
20 | O=C(COc1ccc(-c2ccccc2)cc1)N/N=C/c1ccccc1Br | inactive
21 | Cn1c(CNC(=O)c2ccc3c(c2)OCO3)nnc1SCC(=O)Nc1ccccc1F | inactive
22 | Cc1ccc(-n2nc3ccc(NC(=O)/C=C/c4ccco4)cc3n2)cc1C | inconclusive: 29.1 µM [activator, single point]
23 | Cn1c(C=O)c(-c2ccc3c(c2)OCCO3)c2ccccc21 | inactive
24 | CCN(CC)CCN1C(=O)C2C(C(=O)Nc3ccc(Br)cc3)C3C=CC2(O3)C1C(=O)NC1CCCCC1 (configuration not stated) | inconclusive: 32.6 µM [activator, single point]

Row | SMILES | Potency
25 | Nc1nc(Cl)nc2c1ncn2[C@H]1C[C@H](O)[C@@H](CO)O1 | inactive and inconclusive: 651 nM [activator, partial curve]
26 | COc1ccccc1NC(=O)c1ccccc1NS(C)(=O)=O | inactive
27 | CC(NC(=O)COC(=O)c1cc(=O)c2ccccc2o1)c1ccccc1 (configuration not stated) | inactive
28 | Cn1c(-c2cc3ccc(OC(=O)C(C)(C)C)cc3oc2=O)nc2ccccc21 | inconclusive: 20.6 µM [activator, single point]
29 | Cc1ccc(NC(=O)Cn2cnc3ccccc32)cc1C | inconclusive: 8.2 µM [activator, partial curve]
30 | CC1CCCCC1n1c(=S)[nH]c2ccccc2c1=O (configuration not stated) | inconclusive: 20.6 µM [activator, single point]
31 | Cn1c(SCC(=O)c2ccccc2F)nnc1C1CC1 | inactive
32 | COc1ccc(NC(=O)CCc2ccccc2)cc1S(=O)(=O)N1CCOCC1 | inactive
33 | CCc1nc2cccnc2n1-c1ccc(CC(=O)NC(C)CC)cc1 (configuration not stated) | inactive
34 | Fc1ccc(C(c2ccc(F)cc2)N2CCN(C/C=C/c3ccccc3)CC2)cc1 | inconclusive: 20 µM [activator, single point]
35 | O=C(c1ccc(-c2ccccc2)cc1)c1ccccc1C(=O)N1CCOCC1 | inactive
36 | COc1cc(OC)cc(-c2c(-c3cccs3)c3cc(-c4cnc(N)nc4)ccc3n2C)c1 | inconclusive: 20.6 µM [activator, single point]
37 | Nc1ccccc1C(=O)NNC1=C(C(=O)C(F)(F)F)CCC1 | inconclusive: 29.1 µM [activator, single point]
38 | CN1CCc2c(c3ccccc3n2Cc2ccccc2)C1 | inconclusive: 0.103 µM [activator, full curve, poor fit]
39 | COc1ccc(NC(=O)C2CC(=O)n3cnnc3S2)cc1 (configuration not stated) | inconclusive: 35.5 µM [activator, single point]
40 | Cc1ccc(O)c(Nc2c3ccccc3nc3ccccc23)c1 | inconclusive: 18.4 µM [activator, single point]
41 | CC(C)(O)C1Cc2cc(/C=C/C(=O)O)c(O)cc2O1 (configuration not stated) | inconclusive: 29.1 µM [activator, single point]
42 | Cc1ccc(OCC(=O)N/N=C\c2cn(C)c3ccccc23)c([N+](=O)[O-])c1 | inconclusive: 18.4 µM [activator, single point]
43 | O=C(Nc1cc(S(=O)(=O)N2CCOCC2)ccc1Cl)C(=O)c1c(-c2ccccc2)cc2ccccn12 | inactive
44 | O=c1cc(N2CCCCC2)c(-c2ccccc2)nn1Cc1ccccc1Cl | inactive
45 | Clc1ccc2c(NCc3cccs3)ncnc2c1 | inactive
46 | CCOC(=O)C1=C(C)N(C[C@@H]2CC[C@@H](Cc3ccc(-c4ccccc4)cc3)O2)C(=O)NC1c1ccc(SCc2ccco2)c([N+](=O)[O-])c1 (some centres not stated) | inactive
47 | COc1ccc(/C=C2/C(=O)N(c3ccccc3)N=C2C)cc1Br | inconclusive: 29.1 µM [activator, single point]
